Some results were stated once for a whole list of compounds, not compound by compound.
Test system: patients undergoing major abdominal surgery
Experiment: Epidural anaesthesia in patients undergoing major abdominal surgery
Type: in vivo, human
Settings: 0.75%
Method: This study compared the efficacy, safety and pharmacokinetics of 0.75% levobupivacaine with 0.75% bupivacaine in 58 patients undergoing major abdominal surgery under epidural anaesthesia. Although 0.75% bupivacaine is no longer used in some situations (obstetrics) and 0.5% concentrations are usually adequate for lower extremity surgery, 0.75% is preferential for abdominal surgery because of the enhancement of motor blockade. Onset of sensory anaesthesia to T10 (mean˜15 minutes), time to peak block height (T5, 25-30 min), and abdominal muscle relaxation (RAM score 3-5) were equivalent between the groups. Duration of total sensory anaesthesia was statistically longer with 0.75% levobupivacaine (levobupivacaine—551 min, racemic bupivacaine—506 min).

| SMILES | abdominal muscle relaxation (RAM score) | time to peak block height (T5) |
| --- | --- | --- |
| CCCCN1CCCCC1C(=O)Nc1c(C)cccc1C (racemic) [bupivacaine] | 3-5 | 25 to 30 min |
| CCCCN1CCCC[C@H]1C(=O)Nc1c(C)cccc1C [levobupivacaine, (S)-1-butyl-N-(2,6-dimethylphenyl)-2-piperidinecarboxamide] | 3-5 | 25 to 30 min |
